# The supplement of paper PMC8728848
# The list shows a part of the results.
# B1: GS13599A-bth-520-23-520 (Bacteroides thetaiotaomicron) (protein)
# chain: SEDTMDRINKDHDHTTSVASRFILADVITSTAFSNASGDINTYASSYIEYEVGVDNQLYYAEVRENEPSSSSTFNNSWNGIYSSLKNARIIIDQCGEGGRDHGNDVTRGMAEVMAAYNCALIADFFGDAPCSQAALVDEKGSPVYMTPKMDTQQEIYTQIISYLDDAIANLQKEDLADVTEQDFLYAGDADKWLKFAYGLKARYTMRLINRSSNKSADYEKVLDYVSKSFTSADDQAAFDIYDSNNINPFYGFYNSRAGFGASTSLGTKLLAYNDPRANRAFFTPIVDKKRSQVAANDPSLVPAPNGSPDQSTSKYGISAFVYAKTAPTLLMSYHELMFLKAEALCRLNRDAEDALKEAVVAGLLNAENSISIAIKELGSGLNTNSSEVITETSAGKYFDDVVKAKYAANPLQETMIQKYLAMWGASGEATETYNDFRRMKGLNENFITLTNPNNSSKFPLRYPYGNSDTAANPEVKAAYGNGDYVYSEPVWWAGGSR
# Tests used:
# Experiment in all cases: glycan array binding signal (z-score within array); higher = stronger binding
# Details in all cases: glycan notation: IUPAC condensed, linker removed
# [1] = target: Gal(b1-3)GlcNAc(b1-6)[Gal(b1-3)]GalNAc
# How it was run: (§1)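 From the Consortium for Functional Glycomics database, 3228 arrays were curated, keeping only those whose protein sequence was available. Binding is given as a within-array Z-score averaged across arrays sharing a protein sequence and across linkers. Negative Z-scores can be read as non-binding.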
# Gal(b1-3)GlcNAc6S = target: Gal(b1-3)GlcNAc6S
# How it was run: as §1
# [2] = target: Gal(b1-3)[Fuc(a1-4)]GlcNAc
# How it was run: as §1
# [3] = target: Gal(b1-3)[Fuc(a1-4)]GlcNAc(b1-2)Man
# How it was run: as §1
# [4] = target: Gal(b1-3)[Fuc(a1-4)]GlcNAc(b1-2)Man(a1-3)[Gal(b1-3)[Fuc(a1-4)]GlcNAc(b1-2)Man(a1-6)]Man(b1-4)GlcNAc(b1-4)[Fuc(a1-6)]GlcNAc
# How it was run: as §1
# [5] = target: Gal(b1-3)[Fuc(a1-4)]GlcNAc(b1-3)Gal(b1-3)[Fuc(a1-4)]GlcNAc
# How it was run: as §1
# [6] = target: Gal(b1-3)[Fuc(a1-4)]GlcNAc(b1-3)Gal(b1-4)[Fuc(a1-3)]GlcNAc
# How it was run: as §1
# [7] = target: Gal(b1-3)[Fuc(a1-4)]GlcNAc(b1-6)GalNAc
# How it was run: as §1
# [8] = target: Gal(b1-3)[GlcNAc(b1-6)]GalNAc
# How it was run: as §1
# [9] = target: Gal(b1-3)[Neu5Ac(a2-6)]GalNAc
# How it was run: as §1
# [10] = target: Gal(b1-3)[Neu5Ac(a2-6)]GlcNAc(b1-4)Gal(b1-4)Glc
# How it was run: as §1
# [11] = target: Gal(b1-3)[Neu5Ac(b2-6)]GalNAc
# How it was run: as §1
# Gal(b1-4)Gal = target: Gal(b1-4)Gal
# How it was run: as §1
# [12] = target: Gal(b1-4)GalNAc(a1-3)[Fuc(a1-2)]Gal(b1-4)GlcNAc
# How it was run: as §1
# [13] = target: Gal(b1-4)GalNAc(b1-3)[Fuc(a1-2)]Gal(b1-4)GlcNAc
# How it was run: as §1
# Gal(b1-4)Glc = target: Gal(b1-4)Glc
# How it was run: as §1
# Gal(b1-4)Glc6S = target: Gal(b1-4)Glc6S
# How it was run: as §1
# Gal(b1-4)GlcNAc = target: Gal(b1-4)GlcNAc
# How it was run: as §1
# [14] = target: Gal(b1-4)GlcNAc(a1-6)Gal(b1-4)GlcNAc
# How it was run: as §1
# Gal(b1-4)GlcNAc(b1-2)Man = target: Gal(b1-4)GlcNAc(b1-2)Man
# How it was run: as §1
# [15] = target: Gal(b1-4)GlcNAc(b1-2)Man(a1-3)Man(b1-4)GlcNAc(b1-4)GlcNAc
# How it was run: as §1
# [16] = target: Gal(b1-4)GlcNAc(b1-2)Man(a1-3)[Gal(b1-4)GlcNAc(b1-2)Man(a1-6)]Man(b1-4)GlcNAc(b1-4)GlcNAc
# How it was run: as §1
# [17] = target: Gal(b1-4)GlcNAc(b1-2)Man(a1-3)[Gal(b1-4)GlcNAc(b1-2)Man(a1-6)]Man(b1-4)GlcNAc(b1-4)[Fuc(a1-6)]GlcNAc
# How it was run: as §1
# [18] = target: Gal(b1-4)GlcNAc(b1-2)Man(a1-3)[Gal(b1-4)GlcNAc(b1-2)Man(a1-6)][Gal(b1-4)GlcNAc(b1-4)]Man(b1-4)GlcNAc(b1-4)[Fuc(a1-6)]GlcNAc
# How it was run: as §1
# [19] = target: Gal(b1-4)GlcNAc(b1-2)Man(a1-3)[Gal(b1-4)GlcNAc(b1-2)Man(a1-6)][GlcNAc(b1-4)]Man(b1-4)GlcNAc(b1-4)[Fuc(a1-6)]GlcNAc
# How it was run: as §1
# [20] = target: Gal(b1-4)GlcNAc(b1-2)Man(a1-3)[GlcNAc(b1-2)Man(a1-6)]Man(b1-4)GlcNAc(b1-4)GlcNAc
# How it was run: as §1
# [21] = target: Gal(b1-4)GlcNAc(b1-2)Man(a1-3)[GlcNAc(b1-4)][Gal(b1-4)GlcNAc(b1-2)Man(a1-6)]Man(b1-4)GlcNAc(b1-4)GlcNAc
# How it was run: as §1
# [22] = target: Gal(b1-4)GlcNAc(b1-2)Man(a1-3)[Man(a1-6)]Man(b1-4)GlcNAc(b1-4)GlcNAc
# How it was run: as §1
# [23] = target: Gal(b1-4)GlcNAc(b1-2)Man(a1-6)Man(b1-4)GlcNAc(b1-4)GlcNAc
# How it was run: as §1
# [24] = target: Gal(b1-4)GlcNAc(b1-2)Man(a1-6)[GlcNAc(b1-2)Man(a1-3)]Man(b1-4)GlcNAc(b1-4)GlcNAc
# How it was run: as §1
# [25] = target: Gal(b1-4)GlcNAc(b1-2)Man(a1-6)[Man(a1-3)]Man(b1-4)GlcNAc(b1-4)GlcNAc
# How it was run: as §1
# [26] = target: Gal(b1-4)GlcNAc(b1-2)[Gal(b1-4)GlcNAc(b1-4)]Man(a1-3)[Gal(b1-4)GlcNAc(b1-2)Man(a1-6)]Man(b1-4)GlcNAc(b1-4)GlcNAc
# How it was run: as §1
# [27] = target: Gal(b1-4)GlcNAc(b1-2)[Gal(b1-4)GlcNAc(b1-4)]Man(a1-3)[Gal(b1-4)GlcNAc(b1-2)[Gal(b1-4)GlcNAc(b1-6)]Man(a1-6)]Man(b1-4)GlcNAc(b1-4)GlcNAc
# How it was run: as §1
# [28] = target: Gal(b1-4)GlcNAc(b1-2)[Gal(b1-4)GlcNAc(b1-4)]Man(a1-3)[GlcNAc(b1-4)][Gal(b1-4)GlcNAc(b1-2)Man(a1-6)]Man(b1-4)GlcNAc(b1-4)GlcNAc
# How it was run: as §1
# [29] = target: Gal(b1-4)GlcNAc(b1-2)[Gal(b1-4)GlcNAc(b1-4)]Man(a1-3)[GlcNAc(b1-4)][Gal(b1-4)GlcNAc(b1-2)[Gal(b1-4)GlcNAc(b1-6)]Man(a1-6)]Man(b1-4)GlcNAc(b1-4)GlcNAc
# How it was run: as §1
# [30] = target: Gal(b1-4)GlcNAc(b1-2)[Gal(b1-4)GlcNAc(b1-6)]Man(a1-6)[Gal(b1-4)GlcNAc(b1-2)Man(a1-3)]Man(b1-4)GlcNAc(b1-4)GlcNAc
# How it was run: as §1
# [31] = target: Gal(b1-4)GlcNAc(b1-2)[Gal(b1-4)GlcNAc(b1-6)]Man(a1-6)[Gal(b1-4)GlcNAc(b1-2)Man(a1-3)]Man(b1-4)GlcNAc(b1-4)[Fuc(a1-6)]GlcNAc
# How it was run: as §1
binder,measurement,setting,value
B1,glycan array binding signal (z-score),[1],0.939
same,glycan array binding signal (z-score),Gal(b1-3)GlcNAc6S,-1.62
same,glycan array binding signal (z-score),[2],-1.13
same,glycan array binding signal (z-score),[3],1.63
same,glycan array binding signal (z-score),[4],1.15
same,glycan array binding signal (z-score),[5],-0.817
same,glycan array binding signal (z-score),[6],-1.14
same,glycan array binding signal (z-score),[7],0.415
same,glycan array binding signal (z-score),[8],0.012
same,glycan array binding signal (z-score),[9],-0.318
same,glycan array binding signal (z-score),[10],1.15
same,glycan array binding signal (z-score),[11],-0.564
same,glycan array binding signal (z-score),Gal(b1-4)Gal,0.211
same,glycan array binding signal (z-score),[12],-1.21
same,glycan array binding signal (z-score),[13],-1.09
same,glycan array binding signal (z-score),Gal(b1-4)Glc,-0.435
same,glycan array binding signal (z-score),Gal(b1-4)Glc6S,0.472
same,glycan array binding signal (z-score),Gal(b1-4)GlcNAc,-0.072
same,glycan array binding signal (z-score),[14],-1.2
same,glycan array binding signal (z-score),Gal(b1-4)GlcNAc(b1-2)Man,2.44
same,glycan array binding signal (z-score),[15],0.838
same,glycan array binding signal (z-score),[16],-0.035
same,glycan array binding signal (z-score),[17],0.794
same,glycan array binding signal (z-score),[18],1.17
same,glycan array binding signal (z-score),[19],-0.861
same,glycan array binding signal (z-score),[20],0.298
same,glycan array binding signal (z-score),[21],-0.86
same,glycan array binding signal (z-score),[22],1.74
same,glycan array binding signal (z-score),[23],-0.356
same,glycan array binding signal (z-score),[24],-0.894
same,glycan array binding signal (z-score),[25],-0.256
same,glycan array binding signal (z-score),[26],-0.172
same,glycan array binding signal (z-score),[27],-0.453
same,glycan array binding signal (z-score),[28],-0.486
same,glycan array binding signal (z-score),[29],-0.119
same,glycan array binding signal (z-score),[30],1.27
same,glycan array binding signal (z-score),[31],0.42

# Some of the entries above, set out differently:
binder	measurement	setting	value
B1	glycan array binding signal (z-score)	[5]	-0.817
same	glycan array binding signal (z-score)	Gal(b1-4)Gal	0.211
same	glycan array binding signal (z-score)	[29]	-0.119
